{"source": "PubChem BioAssay AID1159591 (NIAID, 2016)", "purpose": "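Which TLR signalling genes macrophages need for R848-driven Tnf promoter activity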", "system": "mouse RAW264.7 G9 macrophage reporter clone (GFP-p65, Tnf promoter-mCherry)", "reagent": "single siRNA against mouse genes", "duration": "cells assayed 48 to 72 hours after siRNA transfection; R848 for 16 hours before fixing", "conditions": "R848 (TLR7/8 agonist) for 16 hours before fixation; dose not given", "measurement": "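After R848 for 16 hours, nuclear Tnf promoter mCherry signal imaged minus background, scaled per plate by median and MAD into robust z against non-targeting controls, averaged across replicates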", "reading the numbers": "mean Tnf reporter z-score: higher = stronger Tnf promoter reporter signal than controls", "hit rule": "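Absolute z above 1, 1.5, 2 or 2.5 scores 25 up to 100; no stated active threshold; in practice calls fall at roughly z ≤ -1.5 or z ≥ 1.5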", "calls": "active = reporter clearly up or down; inactive = little reporter change", "note": "Here is a random part of 756 reagents. Of all reagents, 130 (17%) are marked active. 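Active calls include both lower and higher Tnf reporter signal.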 Entries without a mark were called inactive. Reagents against one gene are numbered here. Not given: the amount of reagent."}
{"Gene": "Elk1", "reagent": 1, "mean Tnf reporter z-score": "-1.58 (active)"}
{"Gene": "Elk1", "reagent": 2, "mean Tnf reporter z-score": 0.121}
{"Gene": "Elk1", "reagent": 3, "mean Tnf reporter z-score": 0.0745}
{"Gene": "Elk1", "reagent": 4, "mean Tnf reporter z-score": "-3.01 (active)"}
{"Gene": "Elk1", "reagent": 5, "mean Tnf reporter z-score": "-3.46 (active)"}
{"Gene": "Elk1", "reagent": 6, "mean Tnf reporter z-score": "-1.97 (active)"}
{"Gene": "Cd180", "reagent": 1, "mean Tnf reporter z-score": -1.04}
{"Gene": "Cd180", "reagent": 2, "mean Tnf reporter z-score": 0.259}
{"Gene": "Cd180", "reagent": 3, "mean Tnf reporter z-score": 0.0807}
{"Gene": "Cd180", "reagent": 4, "mean Tnf reporter z-score": -0.734}
{"Gene": "Cd180", "reagent": 5, "mean Tnf reporter z-score": -1.03}
{"Gene": "Cd180", "reagent": 6, "mean Tnf reporter z-score": -0.186}
{"Gene": "Ifnb1", "reagent": 1, "mean Tnf reporter z-score": 1.43}
{"Gene": "Ifnb1", "reagent": 2, "mean Tnf reporter z-score": -1.31}
{"Gene": "Ifnb1", "reagent": 3, "mean Tnf reporter z-score": -0.653}
{"Gene": "Ifnb1", "reagent": 4, "mean Tnf reporter z-score": 0.683}
{"Gene": "Ifnb1", "reagent": 5, "mean Tnf reporter z-score": -1.12}
{"Gene": "Ifnb1", "reagent": 6, "mean Tnf reporter z-score": -1.02}
{"Gene": "Irak4", "reagent": 1, "mean Tnf reporter z-score": -1.28}
{"Gene": "Irak4", "reagent": 2, "mean Tnf reporter z-score": "-2.42 (active)"}
{"Gene": "Irak4", "reagent": 3, "mean Tnf reporter z-score": "-1.94 (active)"}
{"Gene": "Irak4", "reagent": 4, "mean Tnf reporter z-score": "-2.39 (active)"}
{"Gene": "Irak4", "reagent": 5, "mean Tnf reporter z-score": "-3.86 (active)"}
{"Gene": "Irak4", "reagent": 6, "mean Tnf reporter z-score": "-1.58 (active)"}
{"Gene": "Itgam", "reagent": 1, "mean Tnf reporter z-score": -0.376}
{"Gene": "Itgam", "reagent": 2, "mean Tnf reporter z-score": -0.681}
{"Gene": "Itgam", "reagent": 3, "mean Tnf reporter z-score": -0.0876}
{"Gene": "Itgam", "reagent": 4, "mean Tnf reporter z-score": 0.239}
{"Gene": "Itgam", "reagent": 5, "mean Tnf reporter z-score": -0.745}
{"Gene": "Itgam", "reagent": 6, "mean Tnf reporter z-score": -0.404}
{"Gene": "Tirap", "reagent": 1, "mean Tnf reporter z-score": 0.515}
{"Gene": "Tirap", "reagent": 2, "mean Tnf reporter z-score": 0.287}
{"Gene": "Tirap", "reagent": 3, "mean Tnf reporter z-score": -1.4}
{"Gene": "Tirap", "reagent": 4, "mean Tnf reporter z-score": 1.49}
{"Gene": "Tirap", "reagent": 5, "mean Tnf reporter z-score": 0.636}
{"Gene": "Tirap", "reagent": 6, "mean Tnf reporter z-score": -0.687}
{"Gene": "Ly96", "reagent": 1, "mean Tnf reporter z-score": 0.954}
{"Gene": "Ly96", "reagent": 2, "mean Tnf reporter z-score": -1.05}
{"Gene": "Ly96", "reagent": 3, "mean Tnf reporter z-score": 0.299}
{"Gene": "Ly96", "reagent": 4, "mean Tnf reporter z-score": 0.571}
{"Gene": "Ly96", "reagent": 5, "mean Tnf reporter z-score": 0.226}
{"Gene": "Ly96", "reagent": 6, "mean Tnf reporter z-score": 0.147}
{"Gene": "Nfkb2", "reagent": 1, "mean Tnf reporter z-score": -0.124}
{"Gene": "Nfkb2", "reagent": 2, "mean Tnf reporter z-score": -1.11}
{"Gene": "Nfkb2", "reagent": 3, "mean Tnf reporter z-score": -1.1}
{"Gene": "Nfkb2", "reagent": 4, "mean Tnf reporter z-score": 0.179}
{"Gene": "Nfkb2", "reagent": 5, "mean Tnf reporter z-score": -0.0163}
{"Gene": "Nfkb2", "reagent": 6, "mean Tnf reporter z-score": "-2.08 (active)"}
{"Gene": "Ets1", "reagent": 1, "mean Tnf reporter z-score": 0.183}
{"Gene": "Ets1", "reagent": 2, "mean Tnf reporter z-score": 0.883}
{"Gene": "Ets1", "reagent": 3, "mean Tnf reporter z-score": -1.09}
{"Gene": "Ets1", "reagent": 4, "mean Tnf reporter z-score": "1.59 (active)"}
{"Gene": "Ets1", "reagent": 5, "mean Tnf reporter z-score": 0.262}
{"Gene": "Ets1", "reagent": 6, "mean Tnf reporter z-score": -0.98}
{"Gene": "Pik3cg", "reagent": 1, "mean Tnf reporter z-score": 0.918}
{"Gene": "Pik3cg", "reagent": 2, "mean Tnf reporter z-score": "-2.77 (active)"}
{"Gene": "Pik3cg", "reagent": 3, "mean Tnf reporter z-score": -0.104}
{"Gene": "Pik3cg", "reagent": 4, "mean Tnf reporter z-score": -0.505}
{"Gene": "Pik3cg", "reagent": 5, "mean Tnf reporter z-score": "-3.9 (active)"}
{"Gene": "Pik3cg", "reagent": 6, "mean Tnf reporter z-score": "-3.37 (active)"}

A run of entries from the list above, as a working copy:
{"Gene": "Ifnb1", "reagent": 6, "mean Tnf reporter z-score": -1.02}
{"Gene": "Irak4", "reagent": 1, "mean Tnf reporter z-score": -1.28}
{"Gene": "Irak4", "reagent": 2, "mean Tnf reporter z-score": "-2.42 (active)"}
{"Gene": "Irak4", "reagent": 3, "mean Tnf reporter z-score": "-1.94 (active)"}
{"Gene": "Irak4", "reagent": 4, "mean Tnf reporter z-score": "-2.39 (active)"}
{"Gene": "Irak4", "reagent": 5, "mean Tnf reporter z-score": "-3.86 (active)"}
{"Gene": "Irak4", "reagent": 6, "mean Tnf reporter z-score": "-1.58 (active)"}
